Percent effect of library compounds

Chains of the proteins cited; added tags and fusions are not shown. Residues count along the entry.
UniProt A4I591, 1-473: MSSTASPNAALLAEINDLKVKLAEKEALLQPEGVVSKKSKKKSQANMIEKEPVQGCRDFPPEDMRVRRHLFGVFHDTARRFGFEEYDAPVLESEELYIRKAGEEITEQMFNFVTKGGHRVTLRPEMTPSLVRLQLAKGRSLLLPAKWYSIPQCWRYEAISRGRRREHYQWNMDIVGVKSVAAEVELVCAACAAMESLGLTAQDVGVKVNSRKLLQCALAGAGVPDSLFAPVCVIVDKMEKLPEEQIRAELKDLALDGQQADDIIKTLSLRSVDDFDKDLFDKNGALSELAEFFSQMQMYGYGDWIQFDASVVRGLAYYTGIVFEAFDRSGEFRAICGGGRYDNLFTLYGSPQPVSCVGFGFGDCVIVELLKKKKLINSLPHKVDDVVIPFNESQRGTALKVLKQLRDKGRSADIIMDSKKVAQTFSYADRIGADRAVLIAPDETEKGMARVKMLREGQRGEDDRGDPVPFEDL
UniProt P9WNZ1, whole entry: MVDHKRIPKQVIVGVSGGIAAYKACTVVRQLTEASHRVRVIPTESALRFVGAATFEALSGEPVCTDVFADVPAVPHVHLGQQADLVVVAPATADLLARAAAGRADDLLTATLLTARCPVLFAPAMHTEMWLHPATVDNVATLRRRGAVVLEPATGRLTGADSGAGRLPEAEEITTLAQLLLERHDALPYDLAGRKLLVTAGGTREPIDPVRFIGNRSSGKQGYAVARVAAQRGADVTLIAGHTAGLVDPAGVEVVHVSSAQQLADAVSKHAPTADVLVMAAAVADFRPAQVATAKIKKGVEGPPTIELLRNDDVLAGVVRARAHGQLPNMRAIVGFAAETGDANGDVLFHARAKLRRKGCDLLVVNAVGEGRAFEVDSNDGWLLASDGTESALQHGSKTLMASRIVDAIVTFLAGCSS
UniProt P9WFT3, whole entry: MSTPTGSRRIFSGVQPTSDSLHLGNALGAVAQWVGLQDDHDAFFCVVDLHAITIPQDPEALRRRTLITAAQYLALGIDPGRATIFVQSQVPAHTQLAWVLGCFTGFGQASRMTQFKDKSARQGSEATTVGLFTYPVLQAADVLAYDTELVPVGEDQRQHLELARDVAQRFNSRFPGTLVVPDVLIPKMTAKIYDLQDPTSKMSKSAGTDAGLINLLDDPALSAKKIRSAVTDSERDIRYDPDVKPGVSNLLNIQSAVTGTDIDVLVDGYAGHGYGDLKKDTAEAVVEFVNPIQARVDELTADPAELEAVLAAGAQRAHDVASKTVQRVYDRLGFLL

A: 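Histidine-tRNA ligase, Leishmania infantum (UniProt A4I591). Enzyme assay of histidyl-tRNA synthetase; the read-out is not stated. Tested at 30 µM. Higher reads as stronger inhibition (inferred: compounds with an IC50 in retests scored well above the rest). The assay is labelled LdHisRS but filed under L. infantum. Of about 69,000 compounds tested this way, about 410 (0.6%) reached 50% or more in at least one test.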
B: 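Coenzyme A biosynthesis protein CoaBC, Mycobacterium tuberculosis (UniProt P9WNZ1). Enzyme assay of CoaBC with a phosphate dye (Biomol Green) read at 650 nm. Compounds at 30 µM. Higher reads as stronger inhibition, judged from the few compounds that gave an IC50. Most strong results did not repeat in a second test. Of about 67,000 compounds tested this way, about 40 (0.06%) reached 50% or more in at least one test.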
C: 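Enzyme assay of tryptophanyl-tRNA synthetase; the read-out is not stated. Target: Tryptophan-tRNA ligase, Mycobacterium tuberculosis (UniProt P9WFT3). Compounds at 10 µM. Direction is not recorded; retested compounds ran higher, which suggests that high means inhibition. Size under these conditions: about 65,000 compounds, about 64 of them at 50% or above in at least one test.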

Values are the deposited “Percent Effect”, in %. How 0% and 100% were set is not recorded. Most values in the screen are low, and negative values occur. The compounds are a random part of those screened. Two or more numbers in one place are separate tests of the same structure; such repeats can differ widely. A dash means the value is not listed here; it may have been measured.

| # | compound | A | B | C |
|---|---|---|---|---|
| 1 | `N#CCCCOc1cccnc1NC(=O)CC1CCCCC1` | 3.704% | 1.02% | 0.2546% |
| 2 | `O=C(NCCC(=O)N1CCCC1)c1cccnc1` | 1.099% | 0.9434% | -0.7698% |
| 3 | `O=C1CC2(CCN(CCCF)CC2)CN1Cc1cc(F)cc(F)c1` | -31.46% | -1.805% | -0.8804% |
| 4 | `Cc1n[nH]cc1CNC1CCN(c2ccc(F)cc2)CC1` | 19.15% | -1.985% | 1.459% |
| 5 | `CN1C[C@@H](NC(=O)C2CC2)C[C@H]1c1nc(-c2cnccn2)no1` | 21.62% | 7.662% | -5.263% |
| 6 | `CC1CCC2(CC1)Nc1ccccc1CO2` (stereo not drawn) | 19.57% | -3.39% | 3.605% |
| 7 | `Cc1ccccc1N1CCN(c2cc(N(C)C)ncn2)C(C)C1` (stereo not drawn) | 1.316% | 4.194% | -3.199% |
| 8 | `CN(C)c1cc2c(nn1)CCN(C(=O)c1ccc(-n3cccn3)nc1)C2` | 27.71% | 7.654% | 0.153% |
| 9 | `Cc1ccccc1OC1CCN(S(=O)(=O)c2c(C)n[nH]c2C)CC1` | 15.49% | 14.73% | -1.427% |
| 10 | `CCc1nc(C)c(C(=O)N2C[C@@H](C(=O)O)[C@H](C3CC3)C2)s1` | 5% | -8.751% | 3.635% |
| 11 | `Cc1ccc(CNCC2Cn3nncc3CO2)s1` (stereo not drawn) | 9.91% | 0.9901% | - |
| 12 | `CCOc1ccnc(N2CCN(C(=O)c3ccc(C#N)cc3)CC2)n1` | 7.895% | -3.781% | 1.237% |
| 13 | `Cc1cccc2[nH]c(C3CCN(C(=O)c4cccnn4)CC3)nc12` | -0.8% | 0.1206% | -2.536% |
| 14 | `CC(C)CC(=O)N1CC(=O)N(Cc2ccco2)CC(O)C1` (stereo not drawn) | -2.041% | -4.116% | - |
| 15 | `COc1cc(OC)c(-n2nnc(C(=O)O)c2C)cc1Cl` | 15.25% | -2.886% | -1.498% |
| 16 | `CCn1cc(S(=O)(=O)Nc2nc3c(s2)CCCC3)cn1` | 11.11% | 2.041% | -0.8912% |
| 17 | `CC(C)Cc1ccc(S(=O)(=O)Nc2ccc(=O)n(C)c2)cc1` | 91.01% | -3.856% | 5.901% |
| 18 | `CC(C)CC(NC(=O)c1ccn(C)c(=O)c1)c1cccs1` (stereo not drawn) | 13.27% | 4.439% | -0.0657% |
| 19 | `O=S1(=O)NCC2(CCNCC2)COc2ccccc21` | 20.69% | - | -2.697% |
| 20 | `CCc1ncc(CN[C@@H]2CCCN(C(C)=O)[C@H]2c2ccc(C)s2)cn1` | 11.72% | 5.315% | -3.765% |
| 21 | `O=C(NCC1CCOC1)c1csc(-c2ccc(Cl)cc2)n1` (stereo not drawn) | 13.91% | 0.6452% | -0.4869% |
| 22 | `CCOc1cc(C(=O)N2CCCC(c3noc(C)n3)C2)ccn1` (stereo not drawn) | 10.61% | 6.511% | 2.632% |
| 23 | `CS(=O)(=O)c1ccc(CN2C[C@@H]3OCC(=O)N(CC(N)=O)[C@@H]3C2)cc1` | 13.51% | 14.73% | 0.6865% |
| 24 | `Cn1cccc(NC(=O)N2CCC(Cc3ccccc3)C2)c1=O` (stereo not drawn) | 106.1% | 7.269% | 7.158% |
| 25 | `Cc1nccn1-c1ccc(=O)n(CCNC(=O)c2cccs2)n1` | 21.74% | 0% | -0.5693% |
| 26 | `CC(C)C(=O)N(C)CC(=O)Nc1ccc(Br)cn1` | 13.79% | 3.133% | -5.185% |
| 27 | `COCCN1Cc2nccn2CC(COCc2csc(C)n2)C1` (stereo not drawn) | 7.547% | 4.39% | - |
| 28 | `CC(NC(=O)CN1C=Nc2ccccc2S1(=O)=O)c1ccccc1` (stereo not drawn) | 13.16% | -4.126% | 2.593% |
| 29 | `c1ccc(CCN2CCN(c3ncnc4[nH]ccc34)CC2)cc1` | -5.195% | 1.022% | -3.708% |
| 30 | `CC(C)c1ncncc1C(=O)NCCN1CCCCC1C` (stereo not drawn) | 12.39% | 2.641% | 1.147% |
| 31 | `CCc1nc(N)sc1C(=O)N1CCCC(CCc2ccccc2C)C1` (stereo not drawn) | 26.42% | -4.846% | 1.844% |
| 32 | `CO[C@H]1CN(C(=O)c2ccc3c(c2)OCO3)[C@@H]2COC[C@H]12` | 5.128% | - | -3.198% |
| 33 | `CN(Cc1nc(CC2CC2)no1)CC1Cc2ccccc2O1` (stereo not drawn) | -2.74% | 6.601% | 0.5961% |
| 34 | `COc1ccnc(NC(=O)c2cscc2C)c1` | 15.15% | 3.14% | -34.73% |
| 35 | `Cc1nc(C)n(CC2CN(c3ncccn3)Cc3nccn3C2)n1` (stereo not drawn) | 22.64% | -4.846% | 2.179% |
| 36 | `Cc1nn(C)c(C)c1C1CCCN1c1ncnc2c1CCC2` (stereo not drawn) | 10.99% | 3.913% | 2.601% |
| 37 | `CC(C)SCC(=O)N1CCc2c(nc(N(C)C)nc2N(C)C)C1` | 18.45% | 8.482% | -0.3552% |
| 38 | `Cn1ncnc1NCc1ccc(F)cc1` | 8.434% | 8.657% | -1.683% |
| 39 | `CCCc1cc(CNC2CCN(c3nc4ccccc4s3)CC2)on1` | 22.45% | 0.4959% | 1.468% |
| 40 | `CC(=O)c1ccc(-n2ccc3nc(N4CCCC4)ncc3c2=O)cc1` | 8.333% | 1.499% | -1.443% |
| 41 | `COCCN1CCCN(C(=O)NC(C)Cn2cccn2)CC1` (stereo not drawn) | 6.25% | 3.162% | -1.541% |
| 42 | `CN(Cc1noc(C2CC2)n1)C1CCN(CC(=O)N2CCOCC2)C1` (stereo not drawn) | 13.39% | 4.215% | 14.89% |
| 43 | `c1cc2cc[nH]c2c(CC2CN(Cc3cncs3)C2)n1` | 21.28% | 4.294% | -8.394% |
| 44 | `Cc1nc2ccccc2n(Cc2nnnn2C2CC2)c1=O` | 17.14% | - | -4.025% |
| 45 | `CCn1ccnc1CN1CCN(Cc2ccc(C)o2)[C@@H]2CS(=O)(=O)C[C@@H]21` | 9.79% | 0.7407% | -1.41% |
| 46 | `Cc1noc(C)c1CNC(C)c1ccc(S(=O)(=O)N(C)C)cc1` (stereo not drawn) | 9.091% | -1.899% | 4.595% |
| 47 | `CCS(=O)(=O)Nc1ccn(Cc2cccc(F)c2)n1` | 11.11% | 2.806% | 0.5092% |
| 48 | `Cc1ncccc1C(=O)Nc1cccc(OCC(F)F)n1` | 11.39% | 3.422% | 3.405% |
| 49 | `CC(=O)Nc1ccc(SCC(O)COCc2ccc3c(c2)OCO3)cc1` (stereo not drawn) | 0% | -0.9206% | -6.004% |
| 50 | `Cc1cc(Cl)ccc1NCC(=O)Nc1cc(C(C)(C)C)no1` | 9.677% | 1.096% | 1.861% |
| 51 | `CC(C)n1ccc2c(C(=O)NC3CN4CCC3CC4)cccc21` (stereo not drawn) | 21.05% | 4.798% | -1.751% |
| 52 | `COC(=O)C(CNC(=O)Nc1cn[nH]c1)Cc1cccc(C)c1` (stereo not drawn) | 13.33% | -0.4132% | -9.768% |
| 53 | `Cn1ccc(C(=O)Nc2nccn2Cc2ccccc2Cl)cc1=O` | 38.55% | 1.942% | -7.686% |
| 54 | `CC(C)COCC(NC(=O)c1cnccn1)c1ccco1` (stereo not drawn) | 14.91% | 22.24% & 11.86% | -0.2825% |
| 55 | `COc1ccccc1CN(C)C(=O)CN1C(=O)OC[C@@H]1c1ccccc1` | -4.396% | -1.341% | 2.649% |
| 56 | `O=C(COCC1CC1)NCC(c1ccccc1)N1CCc2sccc2C1` (stereo not drawn) | 14.29% | 2.733% | 0.8258% |
| 57 | `CCN(C)S(=O)(=O)N[C@H]1CN(c2ccc(F)cn2)C[C@@H]1C(C)C` | 13.73% | 6.503% | 5.181% |
| 58 | `Cc1cnn(CCNC(C)C(=O)Nc2ccc(Cl)cn2)c1` (stereo not drawn) | 10% | -2.475% | -3.942% |
| 59 | `c1ccc(CNc2nc(N3CCOCC3)nc3nccnc23)cc1` | 25% | 0.6904% | -2.859% |
| 60 | `COc1coc(C(=O)Nc2nc(-c3ccncc3)cs2)cc1=O` | 18.68% | 0% | 1.748% |
| 61 | `CCO[C@H]1CC[C@H]2[C@H]1OCCN2C(=O)COc1ccccc1` | 15.45% | 2.469% | - |
| 62 | `Cc1ncnc2c1CCN(C(=O)c1ccncc1)CC2` | -5.405% | 7.269% | 8.619% |
| 63 | `Cc1cccc(CN2C(=O)CC[C@@H]3[C@H]2CCN3Cc2nccn2C)n1` | 26.47% | 2.538% | 2.716% |
| 64 | `CC(=O)N1CCCC1c1nnn2cc(Nc3ccccc3)ccc12` (stereo not drawn) | 22.12% | 15.37% | 11.87% |
| 65 | `CC(=O)NCCCNCc1c(C)nn(CC(C)C)c1N(C)C` | 8.511% | 0.9926% | 2.221% |
| 66 | `CCOC(=O)c1cn(CC(O)c2ccccc2OC)nn1` (stereo not drawn) | -1.695% | 2.635% | -4.495% |
| 67 | `Cn1cnc2c1CCN(CC(=O)NC1CCCCNC1=O)C2` (stereo not drawn) | 15% | -2.871% | -2.621% |

Once more, the final 6:

compound,A,B,C
Cc1ncnc2c1CCN(C(=O)c1ccncc1)CC2,-5.405%,7.269%,8.619%
Cc1cccc(CN2C(=O)CC[C@@H]3[C@H]2CCN3Cc2nccn2C)n1,26.47%,2.538%,2.716%
CC(=O)N1CCCC1c1nnn2cc(Nc3ccccc3)ccc12 (stereo not drawn),22.12%,15.37%,11.87%
CC(=O)NCCCNCc1c(C)nn(CC(C)C)c1N(C)C,8.511%,0.9926%,2.221%
CCOC(=O)c1cn(CC(O)c2ccccc2OC)nn1 (stereo not drawn),-1.695%,2.635%,-4.495%
Cn1cnc2c1CCN(CC(=O)NC1CCCCNC1=O)C2 (stereo not drawn),15%,-2.871%,-2.621%

From ChEMBL document CHEMBL3988442, “University of Dundee, Small-Polar-MMV Screening Library” (2021).